## Results from one PubChem assay

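A panel of P. falciparum strains inside erythrocytes is exposed to compounds for three days, then a DNA-binding dye reports the amount of parasite DNA.
Each compound was titrated across a series from about 0.000037 to 29 µM.
The number is the fitted AC50, the concentration giving a half-maximal change in signal; a lower value means higher potency, whether the curve shows a decrease or an increase.
Calls follow the curve class and fit quality: every row here is inconclusive, covering signal-raising curves and weak, poorly fitted, partial or highest-dose-only inhibition curves.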

Values are in nM.
All entries here are filed as inconclusive.
These entries are mostly ones the record files as inconclusive; other results of the assay are not listed here.
A potency from a partial, single-point or poor curve is only a rough figure.
Some entries filed as inconclusive have a full curve.

| # | structure | condition | Potency (nM) | curve |
|---|---|---|---|---|
| 1 | `CNC(=O)[C@H](Cc1c[nH]c2ccccc12)NC(=O)[C@@H](CC(=O)NO)CC(C)C` | CP203 | 5358 | inhibitor, partial curve |
| 2 | `CNC(=O)[C@H](Cc1c[nH]c2ccccc12)NC(=O)[C@@H](CC(=O)NO)CC(C)C` | CP269 | 16944 | inhibitor, single point |
| 3 | `CNC(=O)[C@H](Cc1c[nH]c2ccccc12)NC(=O)[C@@H](CC(=O)NO)CC(C)C` | CP185 | 10000 | inhibitor, single point |
| 4 | `CNC(=O)[C@H](Cc1c[nH]c2ccccc12)NC(=O)[C@@H](CC(=O)NO)CC(C)C` | CP325 | 19011 | inhibitor, single point |
| 5 | `CNC(=O)[C@H](Cc1c[nH]c2ccccc12)NC(=O)[C@@H](CC(=O)NO)CC(C)C` | CP256 | 12589 | inhibitor, partial curve |
| 6 | `CNC(=O)[C@H](Cc1c[nH]c2ccccc12)NC(=O)[C@@H](CC(=O)NO)CC(C)C` | CP297 | 10690 | inhibitor, partial curve, poor fit |
| 7 | `CNC(=O)[C@H](Cc1c[nH]c2ccccc12)NC(=O)[C@@H](CC(=O)NO)CC(C)C` | PAD | 1412 | inhibitor, partial curve |
| 8 | `CNC(=O)[C@H](Cc1c[nH]c2ccccc12)NC(=O)[C@@H](CC(=O)NO)CC(C)C` | C2A | 7080 | inhibitor, partial curve |
| 9 | `CNC(=O)[C@H](Cc1c[nH]c2ccccc12)NC(=O)[C@@H](CC(=O)NO)CC(C)C` | DFO2036 | 7943 | inhibitor, partial curve |
| 10 | `CNC(=O)[C@H](Cc1c[nH]c2ccccc12)NC(=O)[C@@H](CC(=O)NO)CC(C)C` | CP250 | 17782 | inhibitor, single point |
| 11 | `CNC(=O)[C@H](Cc1c[nH]c2ccccc12)NC(=O)[C@@H](CC(=O)NO)CC(C)C` | GB4 | 15101 | inhibitor, partial curve |
| 12 | `CNC(=O)[C@H](Cc1c[nH]c2ccccc12)NC(=O)[C@@H](CC(=O)NO)CC(C)C` | N140 | 17782 | inhibitor, single point |
| 13 | `C[C@]12CCC(=O)C(O)=C1CC[C@@H]1[C@H]3CCC(=O)[C@@]3(C)CC[C@@H]12` | P93_24 | 2512 | inhibitor, single point |
| 14 | `C[C@]12CCC(=O)C(O)=C1CC[C@@H]1[C@H]3CCC(=O)[C@@]3(C)CC[C@@H]12` | DIV17 | 2133 | inhibitor, partial curve, poor fit |
| 15 | `C[C@]12CCC(=O)C(O)=C1CC[C@@H]1[C@H]3CCC(=O)[C@@]3(C)CC[C@@H]12` | CP265 | 3981 | inhibitor, single point |
| 16 | `C[C@]12CCC(=O)C(O)=C1CC[C@@H]1[C@H]3CCC(=O)[C@@]3(C)CC[C@@H]12` | ATS95 | 2818 | inhibitor, single point |
| 17 | `C[C@]12CCC(=O)C(O)=C1CC[C@@H]1[C@H]3CCC(=O)[C@@]3(C)CC[C@@H]12` | AA1029 | 3981 | inhibitor, single point |
| 18 | `C[C@]12CCC(=O)C(O)=C1CC[C@@H]1[C@H]3CCC(=O)[C@@]3(C)CC[C@@H]12` | CP185 | 3981 | inhibitor, single point |
| 19 | `C[C@]12CCC(=O)C(O)=C1CC[C@@H]1[C@H]3CCC(=O)[C@@]3(C)CC[C@@H]12` | ATS189 | 891.3 | inhibitor, single point |
| 20 | `C[C@]12CCC(=O)C(O)=C1CC[C@@H]1[C@H]3CCC(=O)[C@@]3(C)CC[C@@H]12` | CP250 | 1000 | inhibitor, single point |
| 21 | `C[C@]12CCC(=O)C(O)=C1CC[C@@H]1[C@H]3CCC(=O)[C@@]3(C)CC[C@@H]12` | CP256 | 1585 | inhibitor, full curve |
| 22 | `C[C@]12CCC(=O)C(O)=C1CC[C@@H]1[C@H]3CCC(=O)[C@@]3(C)CC[C@@H]12` | DFO2036 | 891.3 | inhibitor, single point |
| 23 | `C[C@]12CCC(=O)C(O)=C1CC[C@@H]1[C@H]3CCC(=O)[C@@]3(C)CC[C@@H]12` | C2A | 3548 | inhibitor, single point |
| 24 | `C[C@]12CCC(=O)C(O)=C1CC[C@@H]1[C@H]3CCC(=O)[C@@]3(C)CC[C@@H]12` | DIV14 | 6746 | inhibitor, partial curve |
| 25 | `C[C@]12CCC(=O)C(O)=C1CC[C@@H]1[C@H]3CCC(=O)[C@@]3(C)CC[C@@H]12` | P94_40 | 3162 | inhibitor, single point |
| 26 | `C[C@]12CCC(=O)C(O)=C1CC[C@@H]1[C@H]3CCC(=O)[C@@]3(C)CC[C@@H]12` | N140 | 2512 | inhibitor, single point |
| 27 | `CC(C)(C)NCC(O)c1cc(Cl)c(N)c(Cl)c1` (stereo unspecified) | PC26 | 9528 | inhibitor, partial curve |
| 28 | `CC(C)(C)NCC(O)c1cc(Cl)c(N)c(Cl)c1` (stereo unspecified) | AS120 | 10000 | inhibitor, partial curve |
| 29 | `CC(C)(C)NCC(O)c1cc(Cl)c(N)c(Cl)c1` (stereo unspecified) | ATS189 | 11220 | inhibitor, single point |
| 30 | `CC(C)(C)NCC(O)c1cc(Cl)c(N)c(Cl)c1` (stereo unspecified) | CP191 | 11220 | inhibitor, partial curve |
| 31 | `CC(C)(C)NCC(O)c1cc(Cl)c(N)c(Cl)c1` (stereo unspecified) | CP215 | 19011 | inhibitor, partial curve, poor fit |
| 32 | `CC(C)(C)NCC(O)c1cc(Cl)c(N)c(Cl)c1` (stereo unspecified) | DIV30 | 19011 | inhibitor, single point |

The last 2 entries again:

structure,condition,Potency (nM),curve
CC(C)(C)NCC(O)c1cc(Cl)c(N)c(Cl)c1 (stereo unspecified),CP215,19011,"inhibitor, partial curve, poor fit"
CC(C)(C)NCC(O)c1cc(Cl)c(N)c(Cl)c1 (stereo unspecified),DIV30,19011,"inhibitor, single point"

Data taken from PubChem BioAssay AID504749, deposited by NCATS (2011).